Protein sequences, listed by entry. Tags and fused reporters are not part of them. Lines headed by an entry give the natural chain unless they say otherwise; changes in a name come on top.
UniProt P09874, whole entry, looked up: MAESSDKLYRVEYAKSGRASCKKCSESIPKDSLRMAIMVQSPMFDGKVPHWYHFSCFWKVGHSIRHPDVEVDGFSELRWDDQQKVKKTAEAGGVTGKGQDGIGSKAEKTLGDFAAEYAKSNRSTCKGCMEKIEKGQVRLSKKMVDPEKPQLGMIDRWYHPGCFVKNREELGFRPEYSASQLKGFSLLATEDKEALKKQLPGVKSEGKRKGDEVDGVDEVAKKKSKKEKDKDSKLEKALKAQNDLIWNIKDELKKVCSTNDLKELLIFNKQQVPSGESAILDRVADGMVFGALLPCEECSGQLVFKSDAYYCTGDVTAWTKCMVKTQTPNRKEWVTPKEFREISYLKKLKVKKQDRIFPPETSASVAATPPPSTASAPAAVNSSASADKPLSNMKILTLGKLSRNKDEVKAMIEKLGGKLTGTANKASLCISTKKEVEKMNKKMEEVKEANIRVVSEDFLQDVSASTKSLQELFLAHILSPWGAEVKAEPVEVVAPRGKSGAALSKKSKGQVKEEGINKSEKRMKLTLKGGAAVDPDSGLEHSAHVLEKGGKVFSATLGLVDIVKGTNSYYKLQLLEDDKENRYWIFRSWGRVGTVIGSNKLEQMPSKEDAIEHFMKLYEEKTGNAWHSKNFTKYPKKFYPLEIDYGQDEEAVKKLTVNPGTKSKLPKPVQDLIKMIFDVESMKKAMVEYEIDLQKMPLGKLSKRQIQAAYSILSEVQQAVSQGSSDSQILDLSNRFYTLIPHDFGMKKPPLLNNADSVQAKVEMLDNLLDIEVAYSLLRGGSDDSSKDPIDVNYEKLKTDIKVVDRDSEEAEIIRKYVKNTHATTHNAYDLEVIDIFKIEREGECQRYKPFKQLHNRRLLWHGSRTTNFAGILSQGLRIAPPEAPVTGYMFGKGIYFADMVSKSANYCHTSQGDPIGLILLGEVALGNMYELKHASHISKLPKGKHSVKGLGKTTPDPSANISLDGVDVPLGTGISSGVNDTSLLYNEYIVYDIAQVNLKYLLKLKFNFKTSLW
UniProt Q8NEN9: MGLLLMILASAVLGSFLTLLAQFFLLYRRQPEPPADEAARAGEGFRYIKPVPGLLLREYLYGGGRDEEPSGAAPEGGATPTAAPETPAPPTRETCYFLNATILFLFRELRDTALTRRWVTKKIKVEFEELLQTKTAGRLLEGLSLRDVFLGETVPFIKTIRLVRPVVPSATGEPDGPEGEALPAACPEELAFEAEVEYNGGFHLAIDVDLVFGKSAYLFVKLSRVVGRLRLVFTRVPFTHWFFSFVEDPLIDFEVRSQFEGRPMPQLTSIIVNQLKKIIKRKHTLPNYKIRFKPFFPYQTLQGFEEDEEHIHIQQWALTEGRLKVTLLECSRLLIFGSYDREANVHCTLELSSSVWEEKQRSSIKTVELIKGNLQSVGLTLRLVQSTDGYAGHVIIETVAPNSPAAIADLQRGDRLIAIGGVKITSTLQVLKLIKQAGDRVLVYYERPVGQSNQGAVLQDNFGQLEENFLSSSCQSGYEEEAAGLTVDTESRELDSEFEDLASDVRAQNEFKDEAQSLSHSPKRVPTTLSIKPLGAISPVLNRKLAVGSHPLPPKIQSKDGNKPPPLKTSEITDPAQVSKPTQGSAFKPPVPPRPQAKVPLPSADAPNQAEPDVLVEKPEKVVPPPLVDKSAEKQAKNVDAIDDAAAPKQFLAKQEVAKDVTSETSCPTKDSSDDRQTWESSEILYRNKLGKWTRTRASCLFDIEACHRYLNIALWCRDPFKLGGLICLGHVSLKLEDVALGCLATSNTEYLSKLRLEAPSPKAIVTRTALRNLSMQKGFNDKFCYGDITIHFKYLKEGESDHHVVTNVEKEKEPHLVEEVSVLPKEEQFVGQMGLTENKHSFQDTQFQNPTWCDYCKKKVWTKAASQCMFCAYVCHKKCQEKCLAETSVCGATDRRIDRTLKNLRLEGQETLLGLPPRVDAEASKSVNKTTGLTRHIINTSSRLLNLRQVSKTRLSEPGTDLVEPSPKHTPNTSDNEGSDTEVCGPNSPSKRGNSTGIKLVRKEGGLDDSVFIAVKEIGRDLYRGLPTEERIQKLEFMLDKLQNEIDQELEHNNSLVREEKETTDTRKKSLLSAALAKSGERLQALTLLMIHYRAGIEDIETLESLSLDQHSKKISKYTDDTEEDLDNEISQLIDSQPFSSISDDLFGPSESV
UniProt P30086: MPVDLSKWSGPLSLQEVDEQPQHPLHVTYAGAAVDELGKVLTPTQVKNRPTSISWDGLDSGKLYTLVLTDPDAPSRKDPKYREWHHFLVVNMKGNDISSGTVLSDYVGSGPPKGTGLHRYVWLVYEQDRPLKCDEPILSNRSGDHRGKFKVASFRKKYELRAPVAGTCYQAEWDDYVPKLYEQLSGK
UniProt Q8WW12: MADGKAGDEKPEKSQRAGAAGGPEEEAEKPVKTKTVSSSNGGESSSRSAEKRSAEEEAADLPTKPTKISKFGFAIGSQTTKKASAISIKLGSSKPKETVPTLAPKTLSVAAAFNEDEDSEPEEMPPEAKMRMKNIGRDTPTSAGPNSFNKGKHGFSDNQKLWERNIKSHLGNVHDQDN
UniProt Q15084: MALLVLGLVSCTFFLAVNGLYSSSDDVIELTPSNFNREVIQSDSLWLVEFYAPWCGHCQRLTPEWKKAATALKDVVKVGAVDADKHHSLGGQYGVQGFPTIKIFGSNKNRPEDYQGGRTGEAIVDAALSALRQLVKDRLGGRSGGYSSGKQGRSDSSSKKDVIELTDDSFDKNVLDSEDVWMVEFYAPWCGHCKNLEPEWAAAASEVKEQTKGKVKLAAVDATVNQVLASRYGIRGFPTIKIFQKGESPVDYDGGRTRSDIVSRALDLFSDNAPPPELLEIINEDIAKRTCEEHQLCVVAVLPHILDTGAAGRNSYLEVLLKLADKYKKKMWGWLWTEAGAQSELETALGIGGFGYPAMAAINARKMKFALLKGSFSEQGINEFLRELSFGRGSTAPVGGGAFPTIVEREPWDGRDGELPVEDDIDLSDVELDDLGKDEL
UniProt P56645: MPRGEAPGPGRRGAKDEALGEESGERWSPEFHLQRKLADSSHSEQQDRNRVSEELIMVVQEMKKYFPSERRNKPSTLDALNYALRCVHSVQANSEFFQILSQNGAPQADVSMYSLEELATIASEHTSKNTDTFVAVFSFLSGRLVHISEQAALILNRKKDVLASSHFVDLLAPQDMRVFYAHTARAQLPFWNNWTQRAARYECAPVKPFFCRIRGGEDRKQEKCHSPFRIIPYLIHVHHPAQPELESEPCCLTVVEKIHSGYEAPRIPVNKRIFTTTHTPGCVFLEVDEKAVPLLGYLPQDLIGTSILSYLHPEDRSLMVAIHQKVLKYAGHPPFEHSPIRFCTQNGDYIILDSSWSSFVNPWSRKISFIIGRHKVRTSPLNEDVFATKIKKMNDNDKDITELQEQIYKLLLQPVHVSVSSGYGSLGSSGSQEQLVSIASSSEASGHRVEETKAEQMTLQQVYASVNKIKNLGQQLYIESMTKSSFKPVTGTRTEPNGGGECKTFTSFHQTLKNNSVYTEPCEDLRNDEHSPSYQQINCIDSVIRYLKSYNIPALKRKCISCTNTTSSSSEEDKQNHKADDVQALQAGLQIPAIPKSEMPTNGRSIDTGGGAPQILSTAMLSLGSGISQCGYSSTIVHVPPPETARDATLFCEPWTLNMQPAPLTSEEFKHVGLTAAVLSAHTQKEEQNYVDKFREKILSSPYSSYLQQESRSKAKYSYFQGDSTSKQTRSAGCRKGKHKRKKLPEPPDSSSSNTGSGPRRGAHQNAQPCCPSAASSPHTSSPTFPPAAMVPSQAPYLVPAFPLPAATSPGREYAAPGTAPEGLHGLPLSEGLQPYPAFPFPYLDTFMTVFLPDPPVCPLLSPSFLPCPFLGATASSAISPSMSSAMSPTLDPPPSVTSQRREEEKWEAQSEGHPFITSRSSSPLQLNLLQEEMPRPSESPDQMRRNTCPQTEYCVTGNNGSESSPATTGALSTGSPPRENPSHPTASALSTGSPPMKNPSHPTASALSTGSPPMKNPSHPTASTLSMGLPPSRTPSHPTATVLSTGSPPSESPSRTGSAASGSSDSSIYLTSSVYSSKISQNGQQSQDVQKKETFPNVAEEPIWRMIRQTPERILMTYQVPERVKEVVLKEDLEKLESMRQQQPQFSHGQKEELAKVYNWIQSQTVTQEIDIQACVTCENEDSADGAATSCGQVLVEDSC
UniProt Q8IZL8: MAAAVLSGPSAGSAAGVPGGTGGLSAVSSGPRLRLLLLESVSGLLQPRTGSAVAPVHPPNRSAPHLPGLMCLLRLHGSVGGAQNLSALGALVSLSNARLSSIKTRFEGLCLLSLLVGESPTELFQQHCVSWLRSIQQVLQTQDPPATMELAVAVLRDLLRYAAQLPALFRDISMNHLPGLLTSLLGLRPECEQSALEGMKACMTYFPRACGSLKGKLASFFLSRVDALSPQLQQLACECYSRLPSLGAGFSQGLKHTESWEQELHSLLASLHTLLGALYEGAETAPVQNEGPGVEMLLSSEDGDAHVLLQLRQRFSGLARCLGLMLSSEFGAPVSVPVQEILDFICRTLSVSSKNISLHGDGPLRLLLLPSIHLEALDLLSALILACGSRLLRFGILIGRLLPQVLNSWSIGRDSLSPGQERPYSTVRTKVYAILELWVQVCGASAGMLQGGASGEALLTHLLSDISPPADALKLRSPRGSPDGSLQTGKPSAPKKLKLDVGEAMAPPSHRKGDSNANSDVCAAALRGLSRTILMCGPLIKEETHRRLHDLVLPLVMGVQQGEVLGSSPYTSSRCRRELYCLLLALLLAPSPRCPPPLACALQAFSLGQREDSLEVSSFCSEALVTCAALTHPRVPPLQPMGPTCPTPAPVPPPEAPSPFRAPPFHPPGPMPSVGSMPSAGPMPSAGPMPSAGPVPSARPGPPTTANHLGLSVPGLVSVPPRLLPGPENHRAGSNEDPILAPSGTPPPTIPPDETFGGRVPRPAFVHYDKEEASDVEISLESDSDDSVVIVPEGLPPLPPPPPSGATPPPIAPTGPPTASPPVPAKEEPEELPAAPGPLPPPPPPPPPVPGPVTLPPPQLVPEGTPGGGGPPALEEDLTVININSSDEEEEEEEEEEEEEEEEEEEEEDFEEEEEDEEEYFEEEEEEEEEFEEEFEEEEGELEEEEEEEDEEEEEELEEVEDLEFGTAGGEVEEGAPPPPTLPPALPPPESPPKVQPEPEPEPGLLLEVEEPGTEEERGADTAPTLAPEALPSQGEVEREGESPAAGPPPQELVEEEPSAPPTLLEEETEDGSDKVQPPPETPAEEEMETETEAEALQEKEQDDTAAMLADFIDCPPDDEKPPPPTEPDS
UniProt Q9BPZ3: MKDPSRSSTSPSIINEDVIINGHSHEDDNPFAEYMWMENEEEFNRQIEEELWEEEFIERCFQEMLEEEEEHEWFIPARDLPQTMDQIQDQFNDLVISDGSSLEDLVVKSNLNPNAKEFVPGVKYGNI
UniProt Q99497, whole entry, looked up: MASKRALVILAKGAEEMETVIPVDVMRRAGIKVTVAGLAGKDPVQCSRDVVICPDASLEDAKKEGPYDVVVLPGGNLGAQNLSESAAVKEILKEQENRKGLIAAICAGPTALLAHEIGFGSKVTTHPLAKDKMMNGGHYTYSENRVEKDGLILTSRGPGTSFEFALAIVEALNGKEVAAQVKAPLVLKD
UniProt Q8NCN5: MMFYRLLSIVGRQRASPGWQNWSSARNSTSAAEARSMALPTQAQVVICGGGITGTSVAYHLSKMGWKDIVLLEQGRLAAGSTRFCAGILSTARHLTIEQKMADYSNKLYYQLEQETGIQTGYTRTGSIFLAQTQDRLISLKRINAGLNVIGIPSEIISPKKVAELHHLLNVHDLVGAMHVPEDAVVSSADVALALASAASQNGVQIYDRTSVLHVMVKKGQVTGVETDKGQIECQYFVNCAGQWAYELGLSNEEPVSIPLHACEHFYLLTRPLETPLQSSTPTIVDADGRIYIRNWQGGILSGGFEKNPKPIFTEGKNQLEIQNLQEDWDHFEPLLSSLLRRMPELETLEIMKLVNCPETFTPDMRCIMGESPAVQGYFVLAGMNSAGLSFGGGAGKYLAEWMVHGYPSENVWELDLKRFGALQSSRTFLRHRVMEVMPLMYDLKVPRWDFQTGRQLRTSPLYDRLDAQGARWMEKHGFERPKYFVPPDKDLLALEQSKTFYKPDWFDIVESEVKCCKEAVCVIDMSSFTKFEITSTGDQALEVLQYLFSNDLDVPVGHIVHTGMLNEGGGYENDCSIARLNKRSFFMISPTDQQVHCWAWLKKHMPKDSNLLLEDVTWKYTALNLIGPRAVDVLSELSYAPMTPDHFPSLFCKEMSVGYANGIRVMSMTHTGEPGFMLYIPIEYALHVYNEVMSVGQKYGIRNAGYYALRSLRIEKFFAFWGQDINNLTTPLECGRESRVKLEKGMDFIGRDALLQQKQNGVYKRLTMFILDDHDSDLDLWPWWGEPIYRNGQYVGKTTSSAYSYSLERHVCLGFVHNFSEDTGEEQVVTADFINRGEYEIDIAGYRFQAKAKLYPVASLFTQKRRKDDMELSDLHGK

The other results are listed elsewhere or left out.
Each target was assayed with CCCS(=O)(=O)Nc1ccc(F)c(C(=O)c2c[nH]c3ncc(Cl)cc23)c1F (assay: log2 fold change, soluble protein after heating vs DMSO (PISA); higher = thermal stabilisation; K562 cells, 10 uM, 30 min; active = over 0.2 and 3.5 SD of the protein, either way, in both replicates (recomputed)).
Method in brief: (§1)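 K562 cells at 2×10^6 cells/mL were exposed to 10 μM compound for 30 min, then aliquots were heated for 3 min across 48°C-58°C, pooled, and extracted in PBS containing 0.5% NP-40 at 4°C. The supernatant after 21,000xg for 90 min was taken as soluble protein and measured by TMTpro 16plex LC-MS/MS with channel sums equalised. Thermal stability is reported relative to control samples, with values from duplicates. Fold changes are given on a log2 scale.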
PARP1 (UniProt P09874) was tested, and the log2 fold change was inactive: 0.145.
PBLD (UniProt P30039) was tested, and the log2 fold change was inactive: -0.034.
PDZD8 (UniProt Q8NEN9) was tested, and the log2 fold change was inactive: -0.03.
In the case of PDK1 (UniProt Q15118), the log2 fold change is reported as inactive: 0.031.
In the case of PEF1 (UniProt Q9UBV8), the log2 fold change is reported as inactive: 0.073.
For PECAM1 (UniProt P16284), the log2 fold change was inactive: 0.004.
For PEBP1 (UniProt P30086), the log2 fold change was inactive: 0.01.
In the case of PCNP (UniProt Q8WW12), the log2 fold change is reported as inactive: 0.002.
PDIA3 (UniProt P30101) was tested, and the log2 fold change was inactive: -0.044.
In the case of PAGR1 (UniProt Q9BTK6), the log2 fold change is reported as inactive: -0.038.
PDXDC1 (UniProt Q6P996) was tested, and the log2 fold change was inactive: 0.062.
For PC (UniProt P11498), the log2 fold change was inactive: 0.032.
PDLIM1 (UniProt O00151) was tested, and the log2 fold change was inactive: 0.042.
In the case of PDF (UniProt Q9HBH1), the log2 fold change is reported as inactive: 0.031.
With PDIA6 isoform 2 (UniProt Q15084) the log2 fold change was inactive: -0.079.
With PDIA4 (UniProt P13667) the log2 fold change was inactive: -0.042.
With PCBP2 isoform 3 (UniProt Q15366) the log2 fold change was inactive: 0.129.
In the case of PAK3 isoform 3 (UniProt O75914), the log2 fold change is reported as inactive: 0.066.
With PEPD (UniProt P12955) the log2 fold change was inactive: 0.082.
For PER3 isoform 2 (UniProt P56645), the log2 fold change was inactive: 0.04.
For PCGF2 (UniProt P35227), the log2 fold change was inactive: -0.033.
In the case of PELP1 (UniProt Q8IZL8), the log2 fold change is reported as inactive: -0.038.
In the case of PAK2 (UniProt Q13177), the log2 fold change is reported as inactive: 0.029.
For PATL1 (UniProt Q86TB9), the log2 fold change was inactive: 0.005.
With PAIP2 (UniProt Q9BPZ3) the log2 fold change was inactive: -0.003.
In the case of PARK7 (UniProt Q99497), the log2 fold change is reported as inactive: 0.085.
For PDPR (UniProt Q8NCN5), the log2 fold change was inactive: 0.052.
PEA15 isoform 2 (UniProt Q15121) was tested, and the log2 fold change was inactive: 0.122.

The targets below were run with CCCc1cc(C)[nH]c(=O)c1CNC(=O)c1cc(-c2ccnc(N3CCN(C)CC3)c2)cc2c1cnn2C(C)C in the same assay as above.
Method in brief: as §1
With PARP1 (UniProt P09874) the log2 fold change was active: 0.555.
With PBLD (UniProt P30039) the log2 fold change was inactive: 0.01.
PDZD8 (UniProt Q8NEN9) was tested, and the log2 fold change was inactive: -0.112.
PDK1 (UniProt Q15118) was tested, and the log2 fold change was inactive: 0.033.
For PEF1 (UniProt Q9UBV8), the log2 fold change was inactive: -0.045.
PECAM1 (UniProt P16284) was tested, and the log2 fold change was inactive: -0.015.
In the case of PEBP1 (UniProt P30086), the log2 fold change is reported as inactive: 0.
In the case of PCNP (UniProt Q8WW12), the log2 fold change is reported as inactive: 0.08.
With PDIA3 (UniProt P30101) the log2 fold change was inactive: 0.092.
PAGR1 (UniProt Q9BTK6) was tested, and the log2 fold change was inactive: 0.033.
With PDXDC1 (UniProt Q6P996) the log2 fold change was inactive: 0.14.
For PC (UniProt P11498), the log2 fold change was inactive: 0.039.
In the case of PDLIM1 (UniProt O00151), the log2 fold change is reported as inactive: -0.025.
For PDF (UniProt Q9HBH1), the log2 fold change was inactive: -0.113.
For PDIA6 isoform 2 (UniProt Q15084), the log2 fold change was inactive: -0.002.
In the case of PDIA4 (UniProt P13667), the log2 fold change is reported as inactive: 0.026.
For PCBP2 isoform 3 (UniProt Q15366), the log2 fold change was inactive: -0.004.
For PAK3 isoform 3 (UniProt O75914), the log2 fold change was inactive: 0.018.
For PEPD (UniProt P12955), the log2 fold change was inactive: -0.052.
With PER3 isoform 2 (UniProt P56645) the log2 fold change was inactive: 0.067.
For PCGF2 (UniProt P35227), the log2 fold change was inactive: 0.056.
In the case of PELP1 (UniProt Q8IZL8), the log2 fold change is reported as inactive: -0.006.
In the case of PAK2 (UniProt Q13177), the log2 fold change is reported as inactive: -0.047.
PATL1 (UniProt Q86TB9) was tested, and the log2 fold change was inactive: 0.1.
With PAIP2 (UniProt Q9BPZ3) the log2 fold change was inactive: -0.063.
In the case of PARK7 (UniProt Q99497), the log2 fold change is reported as inactive: 0.216.
With PDPR (UniProt Q8NCN5) the log2 fold change was inactive: -0.023.
For PEA15 isoform 2 (UniProt Q15121), the log2 fold change was inactive: -0.003.

Each target was assayed with CCN(CC)Cc1ccc2cc(COC(=O)Nc3ccc(C(=O)NO)cc3)ccc2c1 [givinostat] in the same assay as above.
Method in brief: as §1
PARP1 (UniProt P09874) was tested, and the log2 fold change was inactive: 0.045.
PBLD (UniProt P30039) was tested, and the log2 fold change was inactive: 0.037.
In the case of PDZD8 (UniProt Q8NEN9), the log2 fold change is reported as inactive: 0.011.
In the case of PDK1 (UniProt Q15118), the log2 fold change is reported as inactive: 0.036.
PEF1 (UniProt Q9UBV8) was tested, and the log2 fold change was inactive: 0.022.
PECAM1 (UniProt P16284) was tested, and the log2 fold change was inactive: 0.01.
With PEBP1 (UniProt P30086) the log2 fold change was inactive: -0.038.
In the case of PCNP (UniProt Q8WW12), the log2 fold change is reported as inactive: -0.022.
With PDIA3 (UniProt P30101) the log2 fold change was inactive: -0.014.
In the case of PAGR1 (UniProt Q9BTK6), the log2 fold change is reported as inactive: -0.058.
For PDXDC1 (UniProt Q6P996), the log2 fold change was inactive: 0.077.
In the case of PC (UniProt P11498), the log2 fold change is reported as inactive: 0.022.
With PDLIM1 (UniProt O00151) the log2 fold change was inactive: -0.04.
With PDF (UniProt Q9HBH1) the log2 fold change was inactive: -0.056.
In the case of PDIA6 isoform 2 (UniProt Q15084), the log2 fold change is reported as inactive: -0.044.
In the case of PDIA4 (UniProt P13667), the log2 fold change is reported as inactive: 0.
In the case of PCBP2 isoform 3 (UniProt Q15366), the log2 fold change is reported as inactive: 0.031.
In the case of PAK3 isoform 3 (UniProt O75914), the log2 fold change is reported as inactive: -0.033.
PEPD (UniProt P12955) was tested, and the log2 fold change was inactive: -0.075.
With PER3 isoform 2 (UniProt P56645) the log2 fold change was inactive: -0.039.
PCGF2 (UniProt P35227) was tested, and the log2 fold change was inactive: 0.046.
With PELP1 (UniProt Q8IZL8) the log2 fold change was inactive: 0.039.
With PAK2 (UniProt Q13177) the log2 fold change was inactive: 0.002.
For PATL1 (UniProt Q86TB9), the log2 fold change was inactive: 0.039.
In the case of PAIP2 (UniProt Q9BPZ3), the log2 fold change is reported as inactive: -0.01.
For PARK7 (UniProt Q99497), the log2 fold change was inactive: -0.002.
PDPR (UniProt Q8NCN5) was tested, and the log2 fold change was inactive: -0.014.
PEA15 isoform 2 (UniProt Q15121) was tested, and the log2 fold change was inactive: 0.003.
